Experimental data: PubChem BioAssay AID504784 (Drosophila RNAi Screening Center, 2011)
Purpose: 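Fly genes whose silencing alters how much lipid cells keep in droplets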 (primary screen). Cell system: Drosophila Kc167 embryonic cells. Knock-down reagent: long dsRNA against Drosophila genes, about 250 ng dsRNA per well. Time to read-out: 4 days. Treatment: cells fed 400 µM oleic acid bound to BSA. Read-out: 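Microscope images give a droplet-to-nucleus area ratio, taken as log and converted to a screen-wide B-score; higher values mean greater lipid storage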. Direction: droplet/nuclear area B-score: higher = more stored lipid (overstorage).
In all, the deposit lists about 17,000 reagents; below is an unselected part of those with a known target gene and a result. 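Each column is one replicate's B-score; the combined score over replicates was not deposited, so single values may mislead.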 No sequences are given here.

| Gene | DRSC id | droplet/nuclear area B-score, replicate 1 | droplet/nuclear area B-score, replicate 2 | droplet/nuclear area B-score, replicate 3 |
| --- | --- | --- | --- | --- |
| CG13933 | DRSC08402 | 1.11 | 1.27 | – |
| Cog2 (Component of oligomeric golgi complex 2) | DRSC16987 | 0.284 | -1.41 | – |
| Lim1 (LIM homeobox 1) | DRSC17752 | 0.0908 | -0.803 | -0.0121 |
| Lim1 (LIM homeobox 1) | DRSC18677 | 0.647 | 0.0493 | -2.04 |
| Snm1 | DRSC12130 | 0.265 | -0.0936 | – |
| Rtf1 | DRSC04085 | 0.193 | 0.1 | – |
| l(2)37Bb (lethal (2) 37Bb) | DRSC02088 | 1.46 | -1.15 | -0.993 |
| ChAT (Choline acetyltransferase) | DRSC16609 | -0.378 | -0.667 | – |
| ChAT (Choline acetyltransferase) | DRSC22755 | -0.158 | 0.346 | – |
| Ugt37A1 (UDP-glycosyltransferase family 37 member A1) | DRSC02114 | 0.00786 | 0.0402 | – |
| B9d1 | DRSC14993 | 1.09 | 5.29 | – |
| CG2310 | DRSC15438 | 0.0122 | -0.099 | – |
| parvin | DRSC19468 | -0.81 | -0.0147 | – |
| Cog4 (Component of oligomeric golgi complex 4) | DRSC03057 | 0.431 | -1.59 | – |
| msi (musashi) | DRSC17003 | 0.583 | -1.02 | – |
| Sqor (Sulfide quinone oxidoreductase) | DRSC08453 | 0.105 | – | – |
| CG3803 | DRSC04420 | 1.72 | 0.862 | – |
| CG14321 | DRSC14800 | -1.75 | 0.0217 | – |

The list goes on, starting with the last 4 of the part before.
| Gene | DRSC id | droplet/nuclear area B-score, replicate 1 | droplet/nuclear area B-score, replicate 2 | droplet/nuclear area B-score, replicate 3 |
| --- | --- | --- | --- | --- |
| msi (musashi) | DRSC17003 | 0.583 | -1.02 | – |
| Sqor (Sulfide quinone oxidoreductase) | DRSC08453 | 0.105 | – | – |
| CG3803 | DRSC04420 | 1.72 | 0.862 | – |
| CG14321 | DRSC14800 | -1.75 | 0.0217 | – |
| Atg18b (Autophagy-related 18b) | DRSC03108 | -1.51 | 1.1 | – |
| rux (roughex) | DRSC18829 | 0.417 | 1.48 | -1.94 |
| CG18537 | DRSC06764 | -1.48 | 0.0759 | – |
| CG31867 | DRSC03338 | 0.378 | -1.8 | – |
| HtrA2 (HTRA2-related serine protease) | DRSC16425 | 0.382 | -0.175 | – |
| Uch-L5R (Uch-L5-related) | DRSC19825 | 0.121 | -0.00199 | -2.01 |
| CG2871 | DRSC18230 | 1.1 | – | -0.0552 |
| CG2871 | DRSC21719 | 0.671 | 0.0123 | – |
| CG7985 | DRSC14128 | 0.529 | 0.0903 | – |
| synr (sayonara) | DRSC02369 | 2.46 | -0.199 | – |
| Atg8b (Autophagy-related 8b) | DRSC14501 | 0.024 | -0.00201 | – |
| CG10912 | DRSC06009 | -0.234 | – | – |
| Mhcl (Myosin heavy chain-like) | DRSC13130 | 0.855 | 0.338 | – |
| Mhcl (Myosin heavy chain-like) | DRSC14216 | -0.36 | -1.04 | – |
| Mhcl (Myosin heavy chain-like) | DRSC16753 | -0.0224 | 0.000747 | – |
| CG33543 | DRSC00384 | 2.01 | 0.0073 | – |
| CG33543 | DRSC00385 | -0.0298 | -0.0297 | – |
